Data as given in PubChem BioAssay AID1224830 (NIAID, 2016).
Shown is a random part of about 18,000 reagents. About 2,900 of all reagents (16%) were called active. 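Calls are made per well; low scores hint the gene aids the LPS response, high scores that it dampens it.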 Repeated entries: four replicate wells of each siRNA pool. No sequences are given here.

Aim: 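Genes whose knock-down alters the TNF-alpha reporter response to LPS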 (primary screen)
System: human THP-1 monocytic leukaemia cells, TNF dual-luciferase reporter clone, PMA-differentiated to macrophage-like cells
Reagent: siRNA pool against human genes, 50 nM
Time to read-out: LPS for 4 h, given about 3 days after siRNA transfection
Treatment: bacterial LPS (TLR4 ligand), 10 ng/ml
Detection: 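TNF firefly reporter luminescence divided by renilla, normalised to the plate median, then turned into a robust z-score for each replicate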
Reading the numbers: TNF reporter robust z-score: higher = stronger TNF reporter response to LPS
Active means: 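a well is active when its z-score exceeds 2.8 or falls below -1.5; control wells carry no call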

no.	target gene	TNF reporter robust z-score	outcome
1	SETX	0.36	inactive
2	SETX	0.64	inactive
3	SETX	1.35	inactive
4	SETX	1.89	inactive
5	CEP57L1	-1.88	active
6	CEP57L1	-1.09	inactive
7	CEP57L1	-1.4	inactive
8	CEP57L1	-1.12	inactive
9	MITD1	-0.18	inactive
10	MITD1	3.45	active
11	MITD1	3.77	active
12	MITD1	1.41	inactive
13	PKN3	-0.16	inactive
14	PKN3	0.82	inactive
15	PKN3	0.11	inactive
16	PKN3	0.62	inactive
17	ACSL4	0.6	inactive
18	ACSL4	-0.03	inactive
19	ACSL4	-0.08	inactive
20	ACSL4	1.46	inactive
21	ANKH	2.67	inactive
22	ANKH	4.34	active
23	ANKH	3.2	active
24	ANKH	4.56	active
25	IFNA17	-0.01	inactive
26	IFNA17	-0.33	inactive
27	IFNA17	-0.88	inactive
28	IFNA17	-0.36	inactive
29	TIMMDC1	0.05	inactive
30	TIMMDC1	0.58	inactive
31	TIMMDC1	-0.36	inactive
32	TIMMDC1	1.65	inactive
33	SERHL	0.86	inactive
34	SERHL	0.2	inactive
35	SERHL	0.12	inactive
36	SERHL	-0.4	inactive
37	CALHM5	0.76	inactive
38	CALHM5	0.55	inactive
39	CALHM5	0.92	inactive
40	CALHM5	2.02	inactive
41	LOX	-0.07	inactive
42	LOX	0.39	inactive
43	LOX	-0.01	inactive
44	LOX	-0.67	inactive
45	CCDC81	-0.37	inactive
46	CCDC81	-0.94	inactive
47	CCDC81	-0.16	inactive

The listing continues:
no.	target gene	TNF reporter robust z-score	outcome
48	COL4A2	-0.98	inactive
49	COL4A2	-1.24	inactive
50	COL4A2	-1.06	inactive
51	COL4A2	-1.11	inactive
52	OR8U3	1.23	inactive
53	OR8U3	3.46	active
54	OR8U3	0.09	inactive
55	OR8U3	1.34	inactive
56	OR6Q1	-1.09	inactive
57	OR6Q1	-0.96	inactive
58	OR6Q1	-0.18	inactive
59	OR6Q1	-0.74	inactive
60	NSD3	0.79	inactive
61	NSD3	1.51	inactive
62	NSD3	1.3	inactive
63	NSD3	0.65	inactive
64	DGAT2L6	-0.45	inactive
65	DGAT2L6	-0.36	inactive
66	DGAT2L6	-0.17	inactive
67	DGAT2L6	-0.1	inactive
68	MSN	0.37	inactive
69	MSN	0.03	inactive
70	MSN	-0.55	inactive
71	MSN	-1.27	inactive
72	EFNA4	0.22	inactive
73	EFNA4	0.11	inactive
74	EFNA4	-0.17	inactive
75	EFNA4	-0.38	inactive
76	IFNE	1.79	inactive
77	IFNE	1.76	inactive
78	IFNE	1.73	inactive
79	IFNE	1.32	inactive
80	DUSP2	1.35	inactive
81	DUSP2	-0.41	inactive
82	DUSP2	0.19	inactive
83	DUSP2	3.04	active
84	BDKRB1	-0.54	inactive
85	BDKRB1	-1.11	inactive
86	BDKRB1	-0.14	inactive
87	BDKRB1	-1.23	inactive
88	TLCD5	0.75	inactive
89	TLCD5	0.19	inactive
90	TLCD5	0.5	inactive
91	TLCD5	-0.16	inactive
92	PSG1	-1.66	active
93	PSG1	0.19	inactive
94	PSG1	-0.61	inactive
95	PSG1	-1.11	inactive
96	H2AB3	0.31	inactive
97	H2AB3	0.68	inactive
98	H2AB3	1.05	inactive
99	H2AB3	1.73	inactive
100	KLHL38	-0.47	inactive
101	KLHL38	-0.22	inactive
102	KLHL38	-0.63	inactive
103	KLHL38	-0.32	inactive
104	NOG	-0.42	inactive
105	NOG	0.11	inactive
106	NOG	-1.31	inactive
107	NOG	-0.63	inactive
108	OR2T6	-0.49	inactive
109	OR2T6	0.25	inactive
110	OR2T6	0.07	inactive
111	OR2T6	-0.08	inactive
